Results are given in words; binding and its absence hold for the method and conditions named.
Biological target: Mycobacterium vanbaalenii maltokinase (Mak^Mvan) (Mycobacterium vanbaalenii PYR-1) (UniProt A1TH50)
Test: SEC; Superdex 12 10/300 GL column; fractions pooled after HisPrep and Resource Q, in 50 mM BTP pH 7.4, 50 mM NaCl; both purified

Chains of the proteins cited; added tags and fusions are not shown.
UniProt A1TH50: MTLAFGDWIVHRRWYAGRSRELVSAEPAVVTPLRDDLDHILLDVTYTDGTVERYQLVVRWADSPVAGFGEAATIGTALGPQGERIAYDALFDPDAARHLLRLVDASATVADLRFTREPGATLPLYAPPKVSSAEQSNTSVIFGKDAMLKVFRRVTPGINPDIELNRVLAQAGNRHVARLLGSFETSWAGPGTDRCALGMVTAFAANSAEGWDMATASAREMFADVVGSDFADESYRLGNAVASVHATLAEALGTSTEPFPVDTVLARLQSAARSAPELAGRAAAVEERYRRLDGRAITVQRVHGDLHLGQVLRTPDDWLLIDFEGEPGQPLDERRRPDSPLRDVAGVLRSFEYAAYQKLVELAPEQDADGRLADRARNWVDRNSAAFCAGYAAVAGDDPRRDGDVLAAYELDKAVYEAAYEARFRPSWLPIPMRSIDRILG

binding: no binding
Substance: Mycobacterium vanbaalenii maltokinase (Mak^Mvan) (from UniProt A1TH50 1-441) (enzyme)

Source: PMC4306142, “Structure of mycobacterial maltokinase, the missing link in the essential GlgE-pathway” (Scientific Reports, 2015)
